Laboratory results taken from the supplement of paper PMC3334620.
Over roughly 33,000 sequences, “E-score (-0.5 to 0.5)” has its median near -8e-05; the highest 2% begin near 0.23. This is one part of the list.

target: T1, Nrg2 (UniProt P38082); experiment: PBM E-score (8-mer binding enrichment) (E-score (-0.5 to 0.5)); higher = stronger / more preferred TF binding; settings: protein concentration: 100 nM; construct: GST-full length
T1 sequence: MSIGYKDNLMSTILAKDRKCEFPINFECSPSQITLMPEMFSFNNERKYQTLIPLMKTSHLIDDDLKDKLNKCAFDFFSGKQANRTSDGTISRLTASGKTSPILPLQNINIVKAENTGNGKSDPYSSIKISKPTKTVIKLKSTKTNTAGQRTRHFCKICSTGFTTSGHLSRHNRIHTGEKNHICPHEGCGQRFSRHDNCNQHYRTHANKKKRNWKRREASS
Description: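 Universal 'all 10-mer' protein binding microarrays (Agilent AMADID 015681) probed with GST-tagged S. cerevisiae TFs (full-length or DBD) made by in vitro transcription/translation (PURExpress), about 100-200 nM. Bound TF was detected with fluorescent anti-GST. Each ungapped 8-mer (which stands for itself and its reverse complement) is scored by the PBM enrichment score (E-score), a modified Wilcoxon-Mann-Whitney statistic from -0.5 to +0.5, computed with the Universal PBM Analysis Suite. Scale: above 0.35 generally sequence-specific binding.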

Sequence	PBM E-score
CATACATA	0.219
AATCGAGT	0.0016
CGATACCC	-0.0215
AATAACGA	0.139
AGTGTTCG	0.0585
TCATAACA	0.0772
CCTTACGA	-0.115
ATCTCTAA	-0.0422
AGAACCCG	0.0292
TAAAATTA	0.126
ATTTATCC	0.247
CACATAGA	-0.0246
CACTCTCA	-0.0203
GAAATTAA	0.139
GGCGTGGA	-0.104
ACAGATCA	0.216
CTCCGTTC	-0.0759
TAGCATCA	0.17
TCCCAAAA	0.0584
GCATCAGC	0.00525
AATCTAGC	-0.0305
CACAGACC	0.16
CAAGCAGG	-0.126
AATCTGAA	0.105
ACGGCCAA	0.0172

Sequence	PBM E-score
AGCAACTC	-0.0833
CGTCTCGC	-0.0539
ATCAGACC	0.0464
GGAAGTCC	-0.0592
GATGTAGC	-0.148
AATGAGCT	0.127
ATCGCAAC	0.112
AATATGCA	-0.0794
ACCTCTTA	0.198
AAAGGCTC	-0.211
TCTCACAA	0.191
CTGATTCA	0.0208
GACTATCA	-0.127
ATCAAAAC	0.0363
CGTCGATA	0.118
CAGTTGGA	-0.00944
CCCTGATA	0.125
GAAGAGTC	-0.155
ACGGATGG	-0.128
CATTGCCC	-0.0366
ATGTTAAA	0.0474
AGTAATCC	-0.0271
AGGGCGAG	-0.151
GCCTCATA	-0.0227
ACGAGGGC	0.0428

Sequence	PBM E-score
ACTGGTCG	-0.174
GACAGCAA	-0.0262
CGGTAAAG	-0.0886
GATCGCAC	0.0251
ACTCAAGC	-0.148
ACGATCTA	-0.176
CTGGACCC	0.275
CATCCCGC	-0.0113
ACTCGCCG	0.0986
CAGACTCA	-0.0953
GTACACCA	-0.00684
AGCCGCGA	-0.0535
ATACGAGG	-0.0634
CGTCGCGC	0.0918
GGACGATA	0.0462
AAACTAGT	0.109
GATTCCGA	0.0277
CGCTCTTC	-0.203
AAAGATTA	0.128
ATGAGCGC	0.179
GGACAGAA	0.0661
CCTAACAG	0.0427
TCGCCTAA	-0.0482
GCTTATTA	0.132
CATGGCTA	-0.107

Sequence	PBM E-score
ACGTTATG	0.0787
AGCTCATC	-0.0832
AACTCGAA	0.0774
CGCAGTAC	-0.0277
GACGGGCA	-0.0837
CTTGCTGC	-0.122
CGTTCAAC	0.0486
GATGCAAC	-0.0557
TTAAGGAA	-0.0576
ACCGTGAG	-0.216
CTAGATCA	0.0617
AGGAAAGG	-0.33
ACACGAAG	0.188
AAATGTTC	0.0373
AACCCATG	0.0755
ATTCCGCA	-0.00048
CTTTGAGA	0.0555
CGTTACGC	-0.189
TGCCACAA	0.0785
CAACATTC	-0.0926
CCCCCTTC	-0.392
CTAAAAGC	-0.194
CCCGAACG	-0.0859
CAAAATGG	0.119
AGCGCTTC	0.134

Sequence	PBM E-score
ACCCGGGT	0.0835
CACTTGGG	-0.0672
TAACGGAA	0.116
ACGGGACC	-0.121
CTCGAGGA	0.173
ACATGGTG	-0.00195
AAGAGCAT	-0.0179
AGTATCAG	0.03
ATGGCAAG	0.134
CTGATCCC	0.0429
CTACATAG	0.0424
CCCCTCGG	-0.145
AGATGGCT	-0.0627
AAGCTCAC	-0.0624
ATTCATTG	0.00754
GCTTGCGA	0.0105
ACCACGAC	0.0976
GCCAATAC	0.0323
AATCAGGA	-0.0237
AGCTGCCC	0.137
AGCGTAGA	-0.187
ATAAGTGA	0.0209
ACAACGGA	0.242
ATCACATG	-0.0178
GACCCGCC	0.0656

Sequence	PBM E-score
AAATGCAG	0.112
AGTTTGCA	-0.0668
GCGCCATA	0.103
TCTTGCCA	-0.0174
TCAGGGAA	0.0408
AATGGGTC	-0.0592
CACAGATC	0.0563
CGTCGTAA	-0.169
CCGATCCC	-0.2
GGCACGAC	-0.0374
AAGATTGG	-0.0354
AAATTCTG	0.0434
ACCTAGTG	0.145
CAACTTCC	0.0253
CACAGCTC	-0.022
AGAGACTA	-0.14
ACCTGTTC	0.0117
AAAGACAA	0.194
AACGGTTC	-0.188
CACAGTGA	0.0466
CATGTGGG	0.0198
GTCAGTTA	-0.0619
AGCACAAT	0.129
ACACCATC	0.0972
GTAATAAA	0.15

Copied from the list:
Value of ATCAGACC under PBM E-score: 0.0464
Value of CTGGACCC under PBM E-score: 0.275

Next part.

Sequence	PBM E-score
CCGGCAAA	0.0621
GCACGTTA	-0.0204
ATCTACTG	0.145
ACCGACGT	0.112
ACTTGCTC	-0.0835
CATTCACA	0.107
CTCTTCTC	-0.215
CCCAGGCG	-0.0427
ACCATAAT	0.049
CATGTTTA	-0.0481
ACGGATAG	0.154
GGAACTGA	-0.0433
CGCTTCTC	-0.102
GACTAATA	0.0323
CCAGAGCC	-0.0415
ATGTAAGG	-0.0925
CAGCGTCG	0.0819
ACGGCCGA	0.0931
ACCTGTCC	-0.139
CTGGCCAC	-0.0312
GATCTATA	0.0258
AGTTAGCC	0.0439
CAAACCCG	0.00044
TGGTCGAA	-0.184
AGTGAACA	0.124

Sequence	PBM E-score
TAGAAATA	0.126
GTTGTTGA	0.0302
CGCTTTAG	0.0283
GATTTGTA	0.148
AGAATGCC	-0.21
AATATGCG	0.101
AAGCCCTG	0.132
AATTTTGC	-0.173
GAAATGAC	0.249
GCAGGACC	-0.0329
GCCGGAGC	-0.311
CCCATTCG	0.0901
GTTTCCGA	0.17
CCACTATA	0.145
CGCTGGCA	0.0236
AGGGATTC	0.144
CAGCATCG	-0.248
CCATATGC	0.119
CCCCATAA	-0.0122
CCTATTAG	0.00413
ATCTGAGG	0.0579
GAATTGTC	0.0138
CGACCCAA	0.116
ACGTTCTC	0.0438
AGCAGAGG	-0.209

Retrieved one by one from the entries so far, two records:
Sequence	PBM E-score
ATCTACTG	0.145
AAACTAGT	0.109

Following part

Sequence	PBM E-score
CTCCCGCC	-0.168
CGCTTCAC	-0.0485
GGGGAACA	-0.173
ATACCCGA	0.13
ACTCTTGC	0.071
AGAGTAGG	0.146
AGGGTCCA	0.439
ATGATAGG	-0.00644
AGTCAAAT	-0.0216
GCATACGC	-0.0673
AGCAGTAA	-0.0472
CAGAGCGA	-0.0967
GTGGTTTA	-0.0326
TTATTCAA	0.029
AGGGGCGA	0.0282
AACCCTCG	0.0878
GCGCGCCA	0.199
ACATCTAA	-0.0262
CCTCGCAA	-0.00471
CTCCGGAG	0.052
GACTTAGA	-0.269
ACATTGAG	-0.0472
CAACAAAA	0.0193
TCCGCGGA	-0.0226
CACCCTTC	-0.047

Some of the entries above, set out differently.

| Sequence | PBM E-score |
| --- | --- |
| AGTAATCC | -0.0271 |
| CATCCCGC | -0.0113 |
| AAATGTTC | 0.0373 |
| CAACTTCC | 0.0253 |
| CTGGCCAC | -0.0312 |
| CCCCATAA | -0.0122 |
| AACCCTCG | 0.0878 |

(continued)

Sequence	PBM E-score
TTACATAA	0.0945
AGGAAACG	-0.0446
TGAGGCAA	0.0145
CCCGTAAC	-0.0688
ACTCTATG	0.056
ACGGTCAG	-0.247
ACTGTGAA	0.0807
ACTCGATC	0.0285
GGTGAGAA	-0.0568
CACTTGCA	0.0298
CAAGGCGA	-0.0697
TCCAGAAA	0.0185
CAGTTACG	-0.118
CTAAGTGA	-0.00253
ATGCTATC	0.0323
CCTAGGCC	-0.0804
CAAAGGGG	0.0673
AGATTCAG	0.00389
ACTCTCCT	-0.0647
CGGAGTGA	-0.00536
AGCCAGCG	-0.0673
ACTCTCTA	-0.02
CAAAGATC	0.0537
AATGTCAG	-0.00665
GCCGACGC	0.106

Sequence	PBM E-score
ACCGGCAA	-0.105
CAGATGAA	0.026
AACAGCCG	-0.0322
GACGACAC	-0.0162
ACAGCATA	0.0336
AGTTTACC	0.0272
CTTTATCA	-0.0902
GCAGCGCA	-0.14
CACAACTC	0.161
ATGCATCA	0.229
AAACGCCC	0.075
GCATCTCA	0.0106
CAAACAAG	0.103
ATACAAGG	0.178
AATGTGTA	-0.221
CACTATAC	0.17
GGAGACAC	-0.0981
AGGGACGG	-0.0133
CGCCGCGC	0.0565
GAGTGAAC	-0.0558
CAGAAGCC	-0.0704
TATCGCAA	0.197
AGCTCACG	0.0222
ACAAAGCA	0.157
ACTTAACA	-0.0696

Sequence	PBM E-score
CGCTACAC	-0.0459
ATACCTGC	-0.0191
CGAGACAA	0.00971
CCATTCAA	0.106
AGCTAATG	0.0771
ATCGTAAT	0.0901
GATGTGCA	0.063
ATCAAATA	0.166
ATGTTTTC	0.00675
CAAGAACG	0.14
ATGACGTA	-0.179
ATGGTTGC	-0.0868
ACCCAGCA	-0.0713
ATCATCTA	0.0251
ATCCTAAT	-0.0839
ATAGTGAC	-0.0527
CATTGGCG	-0.192
CCTTGTTC	0.042
CACCCAGA	-0.0382
GCAGCGAA	-0.0544
CTACAGAC	-0.249
AGGAACAG	-0.158
ATTCTAGG	-0.0334
AACGTTTC	-0.144
CGCAGAAA	0.0592

Sequence	PBM E-score
GGTAGTGA	0.0296
GGACGACA	0.132
CAGTAAAG	-0.0525
CCGCGGAC	0.0796
ATTGGCCC	-0.214
CACCAGCG	-0.0759
AACTTAAA	0.0173
ATACTACA	0.175
AATGAGAG	0.0851
AACACTGT	-0.0188
CTTGCCCA	-0.149
GACGGAAA	0.2
ACACGGGG	0.105
AGGAAACC	0.0623
AGTCAGTG	0.147
AGCAGCCT	-0.169
AAATTTCG	0.171
GGGTAAAA	0.134
CCGTAAAA	0.0001
CCCCCGCG	-0.167
CAGCAAAA	0.056
GCATTCGA	0.124
TCGTCTCA	-0.0243
CTCTTACC	0.127
AAAGCTAC	-0.0761

Sequence	PBM E-score
CACCAACG	-0.219
CTCCTCTA	-0.335
CTTAAAAC	0.0325
CGCTAGAC	-0.214
CGCCGGCG	0.0628
CATTAAAG	0.119
ACAACACC	0.0571
AATCGGGT	0.195
CAGTCGTA	-0.0735
GGCCCCCC	-0.347
GAAATAGA	0.136
GAAGTACC	0.129
GTCTCGCA	-0.17
AGACCGTC	-0.104
CCTCCGCG	-0.0794
AAAGTACC	0.0228
TATAGAAA	0.0376
ATAGCCAC	0.113
CCGATGTA	-0.111
